No constants are given. Whether binding was seen depends on the method and setting. Binding seen in cells or lysates may run through a third protein. Some entries that bind do so weakly or less than the wild type.
Key:
GCP5-SBP-Myc (human) = GCP5-SBP-Myc (human) (UniProt Q96RT8); assay: pull-down; SBP pulldowns of GCP-SBP-Myc constructs from HEK293T cells, western blot of inputs and bound fractions; untransfected cells as negative control
[1] = target: GCP5mut-SBP-Myc (GCP5 R213A/R228G/L256E/V258E) (human) (UniProt Q96RT8); assay: as above
GCP6-SBP-Myc (human) = GCP6-SBP-Myc (human) (UniProt B2RWN4); assay: as above
[2] = target: GCP6mut-SBP-Myc (deletion of GCP6 residues 329–341) (human) (UniProt B2RWN4); assay: as above
[3] = target: NEDD1, overexpressed in HEK293T cells (human) (UniProt Q8NHV4); assay: pull-down; overexpressed NEDD1 (wild type or alanine mutants) pulled down from HEK293T cells, γ-tubulin detected

The chains behind the UniProt entries cited, without tags or fusion partners. Where a name states a change or a piece, a line headed by the entry shows the natural chain unless it says otherwise. A line that says so, or that is headed by a name, gives the form on record, which may keep a tag or linker. Residues count along the entry.
UniProt Q96RT8: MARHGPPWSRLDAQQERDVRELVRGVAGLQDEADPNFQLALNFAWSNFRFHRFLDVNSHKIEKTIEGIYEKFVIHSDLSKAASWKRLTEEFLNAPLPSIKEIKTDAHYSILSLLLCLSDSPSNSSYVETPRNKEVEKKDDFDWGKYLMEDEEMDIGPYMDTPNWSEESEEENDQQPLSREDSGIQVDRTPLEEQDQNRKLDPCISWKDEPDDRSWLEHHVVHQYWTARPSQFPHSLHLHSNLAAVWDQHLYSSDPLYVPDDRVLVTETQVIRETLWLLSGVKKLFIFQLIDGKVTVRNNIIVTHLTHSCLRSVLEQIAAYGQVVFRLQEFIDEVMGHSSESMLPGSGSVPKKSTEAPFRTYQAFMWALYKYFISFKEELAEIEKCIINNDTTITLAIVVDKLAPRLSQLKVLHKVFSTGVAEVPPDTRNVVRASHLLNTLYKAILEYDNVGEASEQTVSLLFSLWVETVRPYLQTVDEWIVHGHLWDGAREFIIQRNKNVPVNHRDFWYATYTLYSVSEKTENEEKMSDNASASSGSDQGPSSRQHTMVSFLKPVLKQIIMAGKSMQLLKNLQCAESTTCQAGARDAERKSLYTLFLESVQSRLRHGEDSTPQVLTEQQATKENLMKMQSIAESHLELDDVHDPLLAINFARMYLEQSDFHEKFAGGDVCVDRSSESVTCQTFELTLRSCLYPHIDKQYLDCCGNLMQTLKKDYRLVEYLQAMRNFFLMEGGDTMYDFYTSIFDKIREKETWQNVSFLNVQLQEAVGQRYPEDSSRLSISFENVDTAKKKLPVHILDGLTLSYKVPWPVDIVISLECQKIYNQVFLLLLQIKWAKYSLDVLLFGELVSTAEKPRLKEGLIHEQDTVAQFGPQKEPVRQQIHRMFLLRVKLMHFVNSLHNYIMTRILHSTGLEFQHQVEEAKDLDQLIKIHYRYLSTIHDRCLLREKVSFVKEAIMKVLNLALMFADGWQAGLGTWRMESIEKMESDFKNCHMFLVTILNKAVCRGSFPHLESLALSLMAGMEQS
UniProt B2RWN4: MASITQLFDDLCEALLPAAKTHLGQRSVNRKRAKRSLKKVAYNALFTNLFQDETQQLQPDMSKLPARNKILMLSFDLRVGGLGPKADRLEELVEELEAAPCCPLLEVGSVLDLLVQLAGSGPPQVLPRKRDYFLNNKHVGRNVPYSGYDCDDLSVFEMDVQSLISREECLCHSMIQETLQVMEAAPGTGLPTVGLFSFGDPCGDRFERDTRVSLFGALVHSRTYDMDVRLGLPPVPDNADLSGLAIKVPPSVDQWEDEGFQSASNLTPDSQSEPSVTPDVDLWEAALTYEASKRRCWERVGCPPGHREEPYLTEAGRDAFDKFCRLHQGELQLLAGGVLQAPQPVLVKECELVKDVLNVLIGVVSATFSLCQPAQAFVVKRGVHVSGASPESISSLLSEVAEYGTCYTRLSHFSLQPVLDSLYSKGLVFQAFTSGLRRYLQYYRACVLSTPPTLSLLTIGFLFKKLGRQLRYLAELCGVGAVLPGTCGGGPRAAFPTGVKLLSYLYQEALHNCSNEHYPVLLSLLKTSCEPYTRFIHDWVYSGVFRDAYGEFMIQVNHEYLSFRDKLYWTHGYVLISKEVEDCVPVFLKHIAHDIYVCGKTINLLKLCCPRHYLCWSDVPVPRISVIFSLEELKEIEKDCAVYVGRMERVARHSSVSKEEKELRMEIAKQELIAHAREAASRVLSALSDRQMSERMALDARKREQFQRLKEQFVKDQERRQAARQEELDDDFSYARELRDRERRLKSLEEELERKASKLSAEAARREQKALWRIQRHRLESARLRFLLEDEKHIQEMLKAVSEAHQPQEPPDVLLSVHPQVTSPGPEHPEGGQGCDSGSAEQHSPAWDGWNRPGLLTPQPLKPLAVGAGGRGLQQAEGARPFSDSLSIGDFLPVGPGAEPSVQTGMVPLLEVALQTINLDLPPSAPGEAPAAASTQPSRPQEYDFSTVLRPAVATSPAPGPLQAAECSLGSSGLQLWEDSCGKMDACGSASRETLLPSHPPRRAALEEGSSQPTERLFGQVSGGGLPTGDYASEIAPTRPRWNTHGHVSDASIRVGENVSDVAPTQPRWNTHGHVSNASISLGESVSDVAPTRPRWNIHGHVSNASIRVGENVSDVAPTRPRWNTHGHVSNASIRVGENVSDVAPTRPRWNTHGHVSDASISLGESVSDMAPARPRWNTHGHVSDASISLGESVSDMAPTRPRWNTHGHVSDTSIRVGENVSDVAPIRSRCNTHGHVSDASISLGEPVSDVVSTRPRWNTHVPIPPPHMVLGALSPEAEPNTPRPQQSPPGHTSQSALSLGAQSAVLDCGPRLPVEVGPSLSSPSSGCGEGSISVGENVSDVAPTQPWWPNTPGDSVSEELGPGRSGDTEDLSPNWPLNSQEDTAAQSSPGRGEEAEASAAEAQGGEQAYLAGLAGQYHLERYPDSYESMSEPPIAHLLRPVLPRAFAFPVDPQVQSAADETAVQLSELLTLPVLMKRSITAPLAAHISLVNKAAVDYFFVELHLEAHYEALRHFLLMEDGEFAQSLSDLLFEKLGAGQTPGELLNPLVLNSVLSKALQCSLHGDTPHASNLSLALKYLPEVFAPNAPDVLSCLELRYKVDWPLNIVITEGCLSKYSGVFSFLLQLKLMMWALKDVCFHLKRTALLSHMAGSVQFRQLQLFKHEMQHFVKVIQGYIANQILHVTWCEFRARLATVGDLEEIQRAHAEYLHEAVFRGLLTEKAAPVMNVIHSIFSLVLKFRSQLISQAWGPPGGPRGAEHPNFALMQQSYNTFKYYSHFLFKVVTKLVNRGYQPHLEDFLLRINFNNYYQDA
GCP6mut-SBP-Myc (deletion of GCP6 residues 329–341) (B2RWN4, form named): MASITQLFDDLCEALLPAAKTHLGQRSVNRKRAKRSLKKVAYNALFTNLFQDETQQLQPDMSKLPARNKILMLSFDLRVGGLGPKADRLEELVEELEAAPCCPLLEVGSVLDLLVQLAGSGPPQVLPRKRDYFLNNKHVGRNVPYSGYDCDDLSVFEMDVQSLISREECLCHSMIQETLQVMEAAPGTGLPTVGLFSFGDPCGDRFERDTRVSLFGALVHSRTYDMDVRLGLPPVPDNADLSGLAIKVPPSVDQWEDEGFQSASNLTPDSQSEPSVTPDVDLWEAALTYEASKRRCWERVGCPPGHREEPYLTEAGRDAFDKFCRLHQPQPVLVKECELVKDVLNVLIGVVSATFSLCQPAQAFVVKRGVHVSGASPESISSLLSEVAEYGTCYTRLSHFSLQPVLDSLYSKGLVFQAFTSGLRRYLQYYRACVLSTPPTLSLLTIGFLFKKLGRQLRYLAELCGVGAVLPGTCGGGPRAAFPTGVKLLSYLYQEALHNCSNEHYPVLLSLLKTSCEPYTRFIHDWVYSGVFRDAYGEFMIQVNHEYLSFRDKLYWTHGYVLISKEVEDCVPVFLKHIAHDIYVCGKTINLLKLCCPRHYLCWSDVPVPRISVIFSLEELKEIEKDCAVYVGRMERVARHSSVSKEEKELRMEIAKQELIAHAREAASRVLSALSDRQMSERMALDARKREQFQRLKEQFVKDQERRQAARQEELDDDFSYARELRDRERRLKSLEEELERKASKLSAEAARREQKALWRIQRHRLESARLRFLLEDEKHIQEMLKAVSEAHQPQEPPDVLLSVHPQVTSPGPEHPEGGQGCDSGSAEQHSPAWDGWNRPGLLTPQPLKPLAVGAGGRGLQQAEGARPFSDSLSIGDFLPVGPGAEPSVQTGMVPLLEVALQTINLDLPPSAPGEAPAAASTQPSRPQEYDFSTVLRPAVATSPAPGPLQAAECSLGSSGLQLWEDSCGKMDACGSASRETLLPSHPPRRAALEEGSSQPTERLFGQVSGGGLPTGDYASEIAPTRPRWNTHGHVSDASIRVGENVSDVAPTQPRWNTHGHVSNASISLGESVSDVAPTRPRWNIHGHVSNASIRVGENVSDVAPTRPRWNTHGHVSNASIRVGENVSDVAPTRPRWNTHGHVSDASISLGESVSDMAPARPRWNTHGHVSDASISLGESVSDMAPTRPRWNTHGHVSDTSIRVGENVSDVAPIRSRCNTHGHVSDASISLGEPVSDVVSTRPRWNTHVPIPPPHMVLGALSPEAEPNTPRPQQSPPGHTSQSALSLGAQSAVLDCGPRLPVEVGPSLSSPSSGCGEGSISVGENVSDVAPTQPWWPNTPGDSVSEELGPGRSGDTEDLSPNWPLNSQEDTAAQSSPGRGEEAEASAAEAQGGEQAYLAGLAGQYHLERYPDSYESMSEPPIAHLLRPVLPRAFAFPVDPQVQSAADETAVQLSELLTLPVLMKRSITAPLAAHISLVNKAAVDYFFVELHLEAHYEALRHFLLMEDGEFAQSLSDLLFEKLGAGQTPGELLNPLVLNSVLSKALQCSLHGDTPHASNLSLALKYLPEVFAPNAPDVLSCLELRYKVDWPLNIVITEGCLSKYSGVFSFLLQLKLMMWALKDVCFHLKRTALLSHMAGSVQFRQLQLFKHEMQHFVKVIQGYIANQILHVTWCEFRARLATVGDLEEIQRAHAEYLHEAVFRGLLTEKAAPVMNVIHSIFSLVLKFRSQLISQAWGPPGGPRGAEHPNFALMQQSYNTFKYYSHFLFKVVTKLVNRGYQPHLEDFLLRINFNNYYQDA
UniProt Q8NHV4: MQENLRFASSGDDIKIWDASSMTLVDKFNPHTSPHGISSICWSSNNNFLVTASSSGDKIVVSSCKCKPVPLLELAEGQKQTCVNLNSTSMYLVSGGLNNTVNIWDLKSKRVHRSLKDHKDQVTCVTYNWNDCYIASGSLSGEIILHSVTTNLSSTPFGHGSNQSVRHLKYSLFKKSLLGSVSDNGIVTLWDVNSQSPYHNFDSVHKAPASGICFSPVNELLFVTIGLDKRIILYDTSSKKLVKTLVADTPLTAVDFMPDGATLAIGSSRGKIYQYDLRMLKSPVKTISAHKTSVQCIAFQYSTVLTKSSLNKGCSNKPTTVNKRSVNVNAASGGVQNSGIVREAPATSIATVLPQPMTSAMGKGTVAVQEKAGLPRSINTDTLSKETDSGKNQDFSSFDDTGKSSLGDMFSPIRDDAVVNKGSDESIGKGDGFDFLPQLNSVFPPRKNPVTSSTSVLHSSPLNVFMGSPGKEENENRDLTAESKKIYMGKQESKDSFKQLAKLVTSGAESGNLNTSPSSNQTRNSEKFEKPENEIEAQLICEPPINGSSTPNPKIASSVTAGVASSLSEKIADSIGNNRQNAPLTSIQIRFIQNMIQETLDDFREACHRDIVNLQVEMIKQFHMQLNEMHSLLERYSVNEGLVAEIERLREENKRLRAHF
UniProt P23258: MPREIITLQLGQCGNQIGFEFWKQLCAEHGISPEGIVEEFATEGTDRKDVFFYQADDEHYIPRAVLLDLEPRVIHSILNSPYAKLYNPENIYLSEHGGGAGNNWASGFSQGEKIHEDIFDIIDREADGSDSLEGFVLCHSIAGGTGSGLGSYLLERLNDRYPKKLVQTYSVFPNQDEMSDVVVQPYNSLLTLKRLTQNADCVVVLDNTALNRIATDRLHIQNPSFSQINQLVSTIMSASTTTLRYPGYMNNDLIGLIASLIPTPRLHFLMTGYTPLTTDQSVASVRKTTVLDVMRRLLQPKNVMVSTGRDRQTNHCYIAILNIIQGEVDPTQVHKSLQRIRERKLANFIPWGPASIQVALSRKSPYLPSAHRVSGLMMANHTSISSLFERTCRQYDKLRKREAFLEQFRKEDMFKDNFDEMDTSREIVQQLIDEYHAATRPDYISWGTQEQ

Substance | binding (GCP5-SBP-Myc (human)) | binding [1] | binding (GCP6-SBP-Myc (human)) | binding [2] | binding [3]
NEDD1 detected in SBP pulldowns from HEK293T cells (from UniProt Q8NHV4 1-660) | binds | binds | binds | binds | 
γ-tubulin from HEK293T cells (from UniProt P23258 1-451) |  |  |  |  | binds

— paper PMC13390622
